Test results published in the supplement of paper PMC10849652.
Some of the results follow. Residues, ends and D or L forms follow the SMILES beside them. *: point of attachment. Cbz = O=C(OCc1ccccc1)*

By UniProt entry, the sequences of proteins in these tests, tags left out. Where a name states a change or a piece, a line headed by the entry shows the natural chain unless it says otherwise.
UniProt P41223: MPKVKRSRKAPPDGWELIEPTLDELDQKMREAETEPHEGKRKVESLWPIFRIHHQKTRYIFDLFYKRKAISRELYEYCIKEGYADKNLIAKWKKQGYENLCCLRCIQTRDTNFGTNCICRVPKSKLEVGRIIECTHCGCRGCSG
UniProt Q96EU7: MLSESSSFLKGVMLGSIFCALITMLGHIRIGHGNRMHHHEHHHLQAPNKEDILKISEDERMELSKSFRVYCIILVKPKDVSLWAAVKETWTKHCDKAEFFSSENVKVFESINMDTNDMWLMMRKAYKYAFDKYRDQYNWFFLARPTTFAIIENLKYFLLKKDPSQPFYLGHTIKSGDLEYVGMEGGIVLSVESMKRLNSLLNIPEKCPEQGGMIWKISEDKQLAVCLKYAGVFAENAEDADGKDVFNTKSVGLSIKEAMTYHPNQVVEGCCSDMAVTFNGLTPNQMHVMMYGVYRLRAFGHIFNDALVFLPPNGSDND
UniProt Q9UFG5: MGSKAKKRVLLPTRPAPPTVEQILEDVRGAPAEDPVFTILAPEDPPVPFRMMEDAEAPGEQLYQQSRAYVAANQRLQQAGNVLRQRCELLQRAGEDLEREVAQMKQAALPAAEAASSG
UniProt Q8NDD1: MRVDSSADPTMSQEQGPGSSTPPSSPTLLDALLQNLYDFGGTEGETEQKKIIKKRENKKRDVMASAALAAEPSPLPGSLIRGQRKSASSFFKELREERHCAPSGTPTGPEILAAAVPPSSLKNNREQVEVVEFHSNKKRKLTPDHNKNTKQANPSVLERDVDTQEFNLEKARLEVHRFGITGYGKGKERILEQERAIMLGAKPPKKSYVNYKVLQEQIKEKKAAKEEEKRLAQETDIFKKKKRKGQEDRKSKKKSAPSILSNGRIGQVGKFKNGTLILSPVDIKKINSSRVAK
UniProt Q86VP6: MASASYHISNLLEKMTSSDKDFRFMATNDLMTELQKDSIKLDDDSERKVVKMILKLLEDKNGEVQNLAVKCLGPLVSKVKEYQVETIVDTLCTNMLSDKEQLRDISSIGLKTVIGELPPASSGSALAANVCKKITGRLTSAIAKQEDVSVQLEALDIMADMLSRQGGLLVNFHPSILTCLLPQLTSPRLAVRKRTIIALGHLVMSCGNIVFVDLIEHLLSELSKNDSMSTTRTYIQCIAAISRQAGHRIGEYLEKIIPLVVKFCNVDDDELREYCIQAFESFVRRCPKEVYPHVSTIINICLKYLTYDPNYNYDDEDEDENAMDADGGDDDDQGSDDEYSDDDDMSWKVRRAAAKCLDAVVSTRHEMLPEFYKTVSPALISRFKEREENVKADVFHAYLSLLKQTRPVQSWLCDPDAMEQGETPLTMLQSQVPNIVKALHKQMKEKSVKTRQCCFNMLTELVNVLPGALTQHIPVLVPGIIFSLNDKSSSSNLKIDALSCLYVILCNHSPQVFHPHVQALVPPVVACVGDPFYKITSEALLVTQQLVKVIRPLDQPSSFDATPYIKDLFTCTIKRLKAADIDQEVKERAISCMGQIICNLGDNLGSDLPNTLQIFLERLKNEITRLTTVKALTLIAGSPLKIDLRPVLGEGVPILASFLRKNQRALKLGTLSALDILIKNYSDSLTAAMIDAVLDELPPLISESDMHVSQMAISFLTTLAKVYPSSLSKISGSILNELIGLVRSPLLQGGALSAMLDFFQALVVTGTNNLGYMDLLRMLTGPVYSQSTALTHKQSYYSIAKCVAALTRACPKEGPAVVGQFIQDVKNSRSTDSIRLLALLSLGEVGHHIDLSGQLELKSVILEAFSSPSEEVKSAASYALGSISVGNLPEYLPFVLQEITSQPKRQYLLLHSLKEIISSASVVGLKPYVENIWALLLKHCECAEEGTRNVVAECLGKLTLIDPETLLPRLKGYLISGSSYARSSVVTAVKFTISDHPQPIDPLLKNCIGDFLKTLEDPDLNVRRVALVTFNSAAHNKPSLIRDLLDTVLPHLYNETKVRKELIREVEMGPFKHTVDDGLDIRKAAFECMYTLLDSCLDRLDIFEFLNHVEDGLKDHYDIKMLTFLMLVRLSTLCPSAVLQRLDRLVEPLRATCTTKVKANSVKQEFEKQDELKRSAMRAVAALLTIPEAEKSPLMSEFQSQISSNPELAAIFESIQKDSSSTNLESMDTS
UniProt Q9H0W9: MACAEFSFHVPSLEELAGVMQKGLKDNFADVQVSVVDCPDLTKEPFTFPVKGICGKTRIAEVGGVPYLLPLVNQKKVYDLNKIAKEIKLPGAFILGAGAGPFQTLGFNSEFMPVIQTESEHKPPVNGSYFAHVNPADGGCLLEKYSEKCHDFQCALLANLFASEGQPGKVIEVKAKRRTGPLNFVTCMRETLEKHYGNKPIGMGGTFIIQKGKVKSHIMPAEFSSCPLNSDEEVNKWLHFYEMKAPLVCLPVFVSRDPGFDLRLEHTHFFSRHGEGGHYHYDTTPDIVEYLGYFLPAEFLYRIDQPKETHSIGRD
UniProt P47756, whole entry, looked up: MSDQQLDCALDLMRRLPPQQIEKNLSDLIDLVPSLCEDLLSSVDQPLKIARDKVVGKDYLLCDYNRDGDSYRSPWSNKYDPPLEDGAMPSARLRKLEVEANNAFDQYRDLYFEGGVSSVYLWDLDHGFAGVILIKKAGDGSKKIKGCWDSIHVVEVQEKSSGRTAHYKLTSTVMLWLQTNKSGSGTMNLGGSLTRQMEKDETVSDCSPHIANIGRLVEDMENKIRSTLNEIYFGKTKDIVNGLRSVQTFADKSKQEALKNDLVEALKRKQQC
UniProt Q9BSJ5: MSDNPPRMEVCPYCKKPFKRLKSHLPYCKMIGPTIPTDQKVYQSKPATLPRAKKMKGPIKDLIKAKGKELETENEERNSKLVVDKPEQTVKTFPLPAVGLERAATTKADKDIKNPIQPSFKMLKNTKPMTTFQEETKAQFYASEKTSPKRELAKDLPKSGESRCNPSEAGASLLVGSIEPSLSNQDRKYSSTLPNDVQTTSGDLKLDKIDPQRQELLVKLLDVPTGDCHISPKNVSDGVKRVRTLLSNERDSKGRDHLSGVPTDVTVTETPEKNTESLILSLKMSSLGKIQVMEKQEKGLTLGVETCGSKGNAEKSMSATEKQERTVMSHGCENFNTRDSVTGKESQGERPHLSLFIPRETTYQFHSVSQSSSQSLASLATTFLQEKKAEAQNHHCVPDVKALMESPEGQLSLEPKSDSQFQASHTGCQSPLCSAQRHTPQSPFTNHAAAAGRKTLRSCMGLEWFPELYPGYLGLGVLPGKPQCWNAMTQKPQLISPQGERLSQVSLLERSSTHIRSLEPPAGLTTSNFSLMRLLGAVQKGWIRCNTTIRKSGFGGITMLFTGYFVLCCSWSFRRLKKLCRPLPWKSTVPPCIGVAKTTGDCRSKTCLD
UniProt Q8IYL3: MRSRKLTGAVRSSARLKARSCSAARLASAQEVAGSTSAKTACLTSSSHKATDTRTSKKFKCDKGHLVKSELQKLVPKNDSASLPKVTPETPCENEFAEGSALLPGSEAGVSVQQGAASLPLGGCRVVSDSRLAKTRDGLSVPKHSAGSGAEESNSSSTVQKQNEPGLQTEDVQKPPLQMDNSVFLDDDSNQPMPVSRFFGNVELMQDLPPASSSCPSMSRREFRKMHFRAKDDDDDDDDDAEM
UniProt Q8N8R5: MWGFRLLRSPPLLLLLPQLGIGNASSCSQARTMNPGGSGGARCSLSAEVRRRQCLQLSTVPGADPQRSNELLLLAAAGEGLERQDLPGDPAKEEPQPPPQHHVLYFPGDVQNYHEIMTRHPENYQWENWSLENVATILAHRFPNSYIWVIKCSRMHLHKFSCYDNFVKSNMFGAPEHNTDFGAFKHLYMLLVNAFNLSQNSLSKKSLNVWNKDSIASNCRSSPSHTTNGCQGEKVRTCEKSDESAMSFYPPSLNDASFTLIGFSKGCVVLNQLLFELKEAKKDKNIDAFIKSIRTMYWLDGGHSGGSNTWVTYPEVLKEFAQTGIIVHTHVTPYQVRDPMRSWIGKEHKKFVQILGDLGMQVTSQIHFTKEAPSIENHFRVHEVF
UniProt O43683: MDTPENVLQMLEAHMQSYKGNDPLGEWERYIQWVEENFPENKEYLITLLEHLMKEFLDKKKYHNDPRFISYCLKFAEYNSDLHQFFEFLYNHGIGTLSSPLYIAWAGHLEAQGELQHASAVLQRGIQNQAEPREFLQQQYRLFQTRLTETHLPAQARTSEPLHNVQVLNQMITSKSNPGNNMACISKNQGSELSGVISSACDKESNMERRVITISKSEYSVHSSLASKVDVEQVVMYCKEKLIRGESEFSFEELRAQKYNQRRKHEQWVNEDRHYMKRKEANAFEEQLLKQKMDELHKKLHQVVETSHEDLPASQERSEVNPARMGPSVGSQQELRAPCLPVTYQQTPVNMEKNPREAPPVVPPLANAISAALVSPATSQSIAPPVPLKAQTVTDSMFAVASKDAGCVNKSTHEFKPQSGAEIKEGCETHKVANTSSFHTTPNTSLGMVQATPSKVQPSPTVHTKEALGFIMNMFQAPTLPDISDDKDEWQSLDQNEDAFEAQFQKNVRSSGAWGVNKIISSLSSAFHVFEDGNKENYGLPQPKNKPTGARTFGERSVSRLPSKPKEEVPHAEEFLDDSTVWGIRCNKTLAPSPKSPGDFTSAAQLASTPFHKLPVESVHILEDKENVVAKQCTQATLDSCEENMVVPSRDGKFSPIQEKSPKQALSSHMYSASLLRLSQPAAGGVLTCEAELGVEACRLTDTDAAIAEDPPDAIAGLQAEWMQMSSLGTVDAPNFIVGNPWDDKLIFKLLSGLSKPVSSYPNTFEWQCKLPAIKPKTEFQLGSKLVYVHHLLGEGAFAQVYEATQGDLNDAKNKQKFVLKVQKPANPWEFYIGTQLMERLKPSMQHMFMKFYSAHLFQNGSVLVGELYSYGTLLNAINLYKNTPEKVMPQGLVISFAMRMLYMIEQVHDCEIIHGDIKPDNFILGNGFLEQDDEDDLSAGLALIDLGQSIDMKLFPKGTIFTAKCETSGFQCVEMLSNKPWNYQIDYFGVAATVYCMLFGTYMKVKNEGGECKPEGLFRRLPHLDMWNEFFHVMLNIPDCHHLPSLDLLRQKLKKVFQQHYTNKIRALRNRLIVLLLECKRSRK
UniProt O14523: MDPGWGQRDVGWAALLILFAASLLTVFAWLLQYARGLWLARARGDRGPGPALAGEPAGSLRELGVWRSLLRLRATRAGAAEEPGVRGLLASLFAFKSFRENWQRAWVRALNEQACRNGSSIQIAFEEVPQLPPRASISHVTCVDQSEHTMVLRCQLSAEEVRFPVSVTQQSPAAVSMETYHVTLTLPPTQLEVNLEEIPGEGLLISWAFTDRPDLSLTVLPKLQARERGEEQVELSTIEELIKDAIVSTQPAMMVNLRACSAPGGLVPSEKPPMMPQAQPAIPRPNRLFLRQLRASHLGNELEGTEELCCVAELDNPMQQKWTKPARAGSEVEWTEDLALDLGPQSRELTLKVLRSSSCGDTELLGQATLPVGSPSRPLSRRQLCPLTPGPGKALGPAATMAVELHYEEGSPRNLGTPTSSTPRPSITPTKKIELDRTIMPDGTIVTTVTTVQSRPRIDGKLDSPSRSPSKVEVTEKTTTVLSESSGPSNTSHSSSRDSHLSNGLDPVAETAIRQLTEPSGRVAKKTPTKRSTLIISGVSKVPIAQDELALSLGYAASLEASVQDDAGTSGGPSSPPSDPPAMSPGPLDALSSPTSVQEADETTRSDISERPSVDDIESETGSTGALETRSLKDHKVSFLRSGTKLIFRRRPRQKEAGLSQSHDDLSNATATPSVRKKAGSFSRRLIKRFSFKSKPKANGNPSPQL
UniProt Q9NX04: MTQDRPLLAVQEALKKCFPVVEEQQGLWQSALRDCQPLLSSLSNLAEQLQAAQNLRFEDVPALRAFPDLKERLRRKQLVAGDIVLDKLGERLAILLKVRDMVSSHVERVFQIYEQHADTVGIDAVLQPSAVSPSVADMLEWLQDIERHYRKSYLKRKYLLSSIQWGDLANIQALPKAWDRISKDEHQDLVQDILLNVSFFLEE
UniProt Q9Y2V2: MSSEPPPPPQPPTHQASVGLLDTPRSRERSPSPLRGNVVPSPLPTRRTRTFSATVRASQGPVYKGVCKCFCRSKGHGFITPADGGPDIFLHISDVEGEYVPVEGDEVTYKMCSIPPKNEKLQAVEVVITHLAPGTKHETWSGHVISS

Legend:
Experiment in all cases: log2 fold change, soluble protein after heating vs DMSO (PISA); higher = thermal stabilisation; K562 cells, 10 uM, 30 min; active = over 0.2 and 3.5 SD of the protein, either way, in both replicates (recomputed)
IRAK-1-4 Inhibitor I = compound: C1COCCN1CCN2C3=CC=CC=C3N=C2NC(=O)C4=CC(=CC=C4)[N+](=O)[O-] [IRAK-1-4 Inhibitor I]
How it was run: (§1)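 K562 cells at 2×10^6 cells/mL were given 10 μM compound for 30 min. Aliquots then went through 3 min of heating across 48°C-58°C, were pooled, and were extracted in PBS with 0.5% NP-40 at 4°C, and the supernatant after 21,000xg for 90 min was quantified by TMTpro 16plex LC-MS/MS with channel sums equalised. Thermal stability relative to control samples, from duplicates, is given as log2 fold change.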

ibrutinib = compound: C=CC(=O)N1CCC[C@@H](n2nc(-c3ccc(Oc4ccccc4)cc3)c3c(N)ncnc32)C1 [ibrutinib]
How it was run: as §1

[1] = compound: CC(=O)c1cnc2ccc(-c3cc(Cl)c(O)c(Cl)c3)nc2c1N[C@H]1CC[C@H](CN(C)C)CC1
How it was run: as §1

ralimetinib = compound: CC(C)(C)Cn1c(N)nc2ccc(-c3[nH]c(C(C)(C)C)nc3-c3ccc(F)cc3)nc21 [ralimetinib]
How it was run: as §1

[2] = compound: CC(C)(O)CC(=O)NCCn1ccc2ncnc(Nc3ccc(Oc4cccc(C(F)(F)F)c4)c(Cl)c3)c21
How it was run: as §1

[3] = compound: CC(C)C1=C2N=C(C=C(N2N=C1)NCC3=CC=CC=C3)NCCCCCCN
How it was run: as §1

[4] = compound: CC(C)C[C@@H](C=O)NC(=O)[C@H](CC(C)C)NC(=O)[C@H](CC(C)C)NC(=O)OCc1ccccc1
How it was run: as §1

pinometostat = compound: CC(C)N(C[C@H]1O[C@@H](n2cnc3c(N)ncnc32)[C@H](O)[C@@H]1O)[C@H]1C[C@@H](CCc2nc3cc(C(C)(C)C)ccc3[nH]2)C1 [pinometostat]
How it was run: as §1

[5] = compound: CC1=C(C(CC(=O)N1)C2=CC=C(C=C2)C(F)(F)F)C(=O)NC3=C(C=C4C(=C3)C=NN4)F
How it was run: as §1

[6] = compound: CC1=C(C2=C(C=C1)C(=O)C3=CC=CC=C3N2CCCN)C
How it was run: as §1

[7] = compound: CC1=C(C=C(C=C1)NC(=O)C2=CC(=CC=C2)C(C)(C)C#N)NC3=CC4=C(C=C3)N=CN(C4=O)C
How it was run: as §1

[8] = compound: CC1=C(C=C(C=C1)NC(=O)C2=CC(=CC=C2)N(C)C)NC(=O)C3=CC=C(C=C3)O
How it was run: as §1

[9] = compound: CC1=CC=C(C=C1)SC2=C3C=C(SC3=CN=C2)C(=O)N
How it was run: as §1

[10] = compound: CC1=NC(=CC=C1)C2=C(N=C(N2)C(C)(C)C)C3=CC4=NC=CN=C4C=C3
How it was run: as §1

Nexturastat A = compound: CCCCN(Cc1ccc(C(=O)NO)cc1)C(=O)Nc1ccccc1 [Nexturastat A]
How it was run: as §1

vemurafenib = compound: CCCS(=O)(=O)Nc1ccc(F)c(C(=O)c2c[nH]c3ncc(-c4ccc(Cl)cc4)cc23)c1F [vemurafenib]
How it was run: as §1

[11] = compound: CCCS(=O)(=O)Nc1ccc(F)c(C(=O)c2c[nH]c3ncc(Cl)cc23)c1F
How it was run: as §1

[12] = compound: CCCc1cc(C)[nH]c(=O)c1CNC(=O)c1cc(-c2ccnc(N3CCN(C)CC3)c2)cc2c1cnn2C(C)C
How it was run: as §1

givinostat = compound: CCN(CC)Cc1ccc2cc(COC(=O)Nc3ccc(C(=O)NO)cc3)ccc2c1 [givinostat]
How it was run: as §1

barasertib = compound: CCN(CCCOc1ccc2c(Nc3cc(CC(=O)Nc4cccc(F)c4)[nH]n3)ncnc2c1)CCOP(=O)(O)O [barasertib]
How it was run: as §1

Measured: log2 fold change

BUD31 (UniProt P41223)
inactive: IRAK-1-4 Inhibitor I 0.062 | ibrutinib 0.015 | [1] 0.1 | ralimetinib 0.023 | [2] -0.028 | [3] 0.103 | [4] -0.03 | pinometostat -0.044 | [5] 0.022 | [6] 0.046 | [7] 0.034 | [8] -0.011 | [9] 0.002 | [10] 0.012 | Nexturastat A -0.003 | vemurafenib -0.048 | [11] -0.018 | [12] 0.137 | givinostat -0.137 | barasertib 0

C1GALT1C1 (UniProt Q96EU7)
inactive: IRAK-1-4 Inhibitor I 0.006 | ibrutinib -0.029 | [1] -0.062 | ralimetinib 0.057 | [2] 0.073 | [3] 0.013 | [4] 0.048 | pinometostat 0.027 | [5] -0.023 | [6] 0.014 | [7] -0.033 | [8] -0.04 | [9] -0.035 | [10] -0.034 | Nexturastat A 0.012 | vemurafenib 0.051 | [11] -0.005 | [12] 0.026 | givinostat 0.004 | barasertib 0.008

CAPZA1 (UniProt P52907)
inactive: IRAK-1-4 Inhibitor I 0.03 | ibrutinib 0.031 | [1] 0.018 | ralimetinib -0.023 | [2] -0.012 | [3] 0.061 | [4] -0.019 | pinometostat -0.033 | [5] 0.006 | [6] 0.041 | [7] 0.002 | [8] -0.01 | [9] 0.061 | [10] 0.051 | Nexturastat A -0.01 | vemurafenib 0.002 | [11] 0.065 | [12] -0.022 | givinostat 0.029 | barasertib -0.035

C19orf25 (UniProt Q9UFG5)
inactive: IRAK-1-4 Inhibitor I -0.005 | ibrutinib 0.017 | [1] -0.136 | ralimetinib -0.143 | [2] -0.134 | [3] 0.071 | [4] -0.069 | pinometostat -0.112 | [5] 0.036 | [6] 0.353 | [7] -0.101 | [8] -0.126 | [9] 0.012 | [10] -0.074 | Nexturastat A 0.064 | vemurafenib 0 | [11] -0.014 | [12] 0.025 | givinostat -0.033 | barasertib -0.016

C1orf131 isoform 5 (UniProt Q8NDD1)
inactive: IRAK-1-4 Inhibitor I -0.132 | ibrutinib 0.03 | [1] 0.099 | ralimetinib 0.077 | [2] 0.085 | [3] 0.126 | [4] 0.109 | pinometostat 0.238 | [5] 0.064 | [6] -0.024 | [7] -0.058 | [8] 0.024 | [9] -0.115 | [10] -0.113 | Nexturastat A 0.163 | vemurafenib -0.123 | [11] -0.084 | [12] 0.1 | givinostat 0.026 | barasertib -0.028

CAND1 (UniProt Q86VP6)
inactive: IRAK-1-4 Inhibitor I 0.043 | ibrutinib 0.033 | [1] 0.024 | ralimetinib -0.037 | [2] -0.026 | [3] 0.049 | [4] -0.06 | pinometostat -0.063 | [5] 0.026 | [6] -0.002 | [7] -0.012 | [8] 0.02 | [9] 0.055 | [10] 0.035 | Nexturastat A -0.015 | vemurafenib -0.026 | [11] 0.033 | [12] -0.002 | givinostat -0.004 | barasertib 0.005

C11orf54 (UniProt Q9H0W9)
inactive: IRAK-1-4 Inhibitor I 0.063 | ibrutinib 0.041 | [1] 0.025 | ralimetinib -0.035 | [2] -0.043 | [3] 0.046 | [4] 0.024 | pinometostat -0.057 | [5] -0.006 | [6] -0.059 | [7] 0.049 | [8] 0.002 | [9] 0.139 | [10] 0.011 | Nexturastat A 0.06 | vemurafenib 0.062 | [11] -0.02 | [12] -0.008 | givinostat 0.001 | barasertib -0.018

CAPZB isoform 2 (UniProt P47756)
inactive: IRAK-1-4 Inhibitor I 0.057 | ibrutinib -0.02 | [1] 0.054 | ralimetinib -0.024 | [2] 0.008 | [3] 0.069 | [4] -0.07 | pinometostat 0.029 | [5] 0.02 | [6] -0.056 | [7] -0.038 | [8] -0.035 | [9] -0.052 | [10] 0.015 | Nexturastat A -0.068 | vemurafenib -0.053 | [11] -0.047 | [12] 0.056 | givinostat -0.027 | barasertib 0.057

C17orf80 (UniProt Q9BSJ5)
inactive: IRAK-1-4 Inhibitor I 0.038 | ibrutinib -0.009 | [1] 0.008 | ralimetinib -0.029 | [2] 0.069 | [3] 0.061 | [4] 0.092 | pinometostat 0.025 | [5] 0.079 | [6] -0.033 | [7] 0.017 | [8] -0.008 | [9] 0.015 | [10] -0.013 | Nexturastat A 0.122 | vemurafenib -0.028 | [11] -0.03 | [12] -0.06 | givinostat -0.01 | barasertib 0.017

C1orf174 (UniProt Q8IYL3)
inactive: IRAK-1-4 Inhibitor I 0.043 | ibrutinib 0.035 | [1] -0.312 | ralimetinib 0.06 | [2] 0.05 | [3] 0.106 | [4] 0.029 | pinometostat -0.002 | [5] -0.06 | [6] 0.102 | [7] -0.034 | [8] 0.037 | [9] -0.047 | [10] 0.051 | Nexturastat A 0.067 | vemurafenib 0.01 | [11] -0.03 | [12] -0.073 | givinostat -0.057 | barasertib 0.008

C2orf69 (UniProt Q8N8R5)
inactive: IRAK-1-4 Inhibitor I -0.036 | ibrutinib -0.011 | [1] 0.072 | ralimetinib 0 | [2] -0.14 | [3] 0.064 | [4] 0 | pinometostat -0.032 | [5] -0.016 | [6] -0.026 | [7] 0.012 | [8] -0.004 | [9] 0.018 | [10] 0.051 | Nexturastat A -0.077 | vemurafenib -0.001 | [11] -0.015 | [12] 0.09 | givinostat -0.08 | barasertib 0.07

BUB1 (UniProt O43683)
inactive: IRAK-1-4 Inhibitor I 0 | ibrutinib -0.033 | [1] -0.031 | ralimetinib -0.137 | [2] -0.026 | [3] -0.073 | [4] -0.042 | pinometostat 0.019 | [5] 0.128 | [6] 0.125 | [7] -0.049 | [8] 0.107 | [9] -0.05 | [10] -0.085 | Nexturastat A -0.059 | vemurafenib -0.075 | [11] -0.168 | [12] -0.168 | givinostat 0.066 | barasertib 0.035

C2CD2L (UniProt O14523)
inactive: IRAK-1-4 Inhibitor I 0.029 | ibrutinib 0.046 | [1] -0.094 | ralimetinib -0.035 | [2] -0.025 | [3] -0.085 | [4] 0.066 | pinometostat 0.028 | [5] -0.002 | [6] 0.083 | [7] -0.03 | [8] 0.083 | [9] -0.003 | [10] -0.019 | Nexturastat A 0.035 | vemurafenib -0.007 | [11] 0.036 | [12] -0.01 | givinostat -0.044 | barasertib 0.022

C1orf109 (UniProt Q9NX04)
inactive: IRAK-1-4 Inhibitor I 0.014 | ibrutinib 0.015 | [1] 0.014 | ralimetinib -0.038 | [2] -0.141 | [3] 0.119 | [4] 0.038 | pinometostat -0.01 | [5] -0.034 | [6] 0.094 | [7] 0.143 | [8] 0.116 | [9] -0.008 | [10] -0.01 | Nexturastat A 0.194 | vemurafenib -0.069 | [11] -0.035 | [12] 0.034 | givinostat 0.047 | barasertib 0.052

2 entries picked at random from the list so far, as already listed:
C1orf109 (UniProt Q9NX04)
inactive: IRAK-1-4 Inhibitor I 0.014 | ibrutinib 0.015 | [1] 0.014 | ralimetinib -0.038 | [2] -0.141 | [3] 0.119 | [4] 0.038 | pinometostat -0.01 | [5] -0.034 | [6] 0.094 | [7] 0.143 | [8] 0.116 | [9] -0.008 | [10] -0.01 | Nexturastat A 0.194 | vemurafenib -0.069 | [11] -0.035 | [12] 0.034 | givinostat 0.047 | barasertib 0.052

C2orf69 (UniProt Q8N8R5)
inactive: IRAK-1-4 Inhibitor I -0.036 | ibrutinib -0.011 | [1] 0.072 | ralimetinib 0 | [2] -0.14 | [3] 0.064 | [4] 0 | pinometostat -0.032 | [5] -0.016 | [6] -0.026 | [7] 0.012 | [8] -0.004 | [9] 0.018 | [10] 0.051 | Nexturastat A -0.077 | vemurafenib -0.001 | [11] -0.015 | [12] 0.09 | givinostat -0.08 | barasertib 0.07

Later entries

CARHSP1 (UniProt Q9Y2V2)
inactive: IRAK-1-4 Inhibitor I 0.064 | ibrutinib -0.024 | [1] 0.039 | ralimetinib -0.056 | [2] -0.027 | [3] -0.048 | [4] 0.026 | pinometostat -0.023 | [5] -0.047 | [6] 0.013 | [7] 0.061 | [8] -0.047 | [9] 0.027 | [10] 0.002 | Nexturastat A -0.074 | vemurafenib -0.004 | [11] 0.023 | [12] -0.017 | givinostat -0.008 | barasertib 0.003

CAPZA2 (UniProt P47755)
inactive: IRAK-1-4 Inhibitor I 0.034 | ibrutinib 0.003 | [1] 0.011 | ralimetinib 0 | [2] -0.033 | [3] 0.015 | [4] -0.012 | pinometostat -0.027 | [5] 0.014 | [6] -0.009 | [7] 0.018 | [8] 0.022 | [9] 0.063 | [10] 0.069 | Nexturastat A -0.092 | vemurafenib 0.006 | [11] 0.094 | [12] -0.065 | givinostat -0.021 | barasertib -0.002
